One substance from publication doi:10.1101/176586 can be followed below.

The chains behind the UniProt entries cited, without tags or fusion partners. Where a name states a change or a piece, a line headed by the entry shows the natural chain unless it says otherwise. A line that says so, or that is headed by a name, gives the form on record, which may keep a tag or linker.
WT Vinculin (2-1066) (P18206-2, form named): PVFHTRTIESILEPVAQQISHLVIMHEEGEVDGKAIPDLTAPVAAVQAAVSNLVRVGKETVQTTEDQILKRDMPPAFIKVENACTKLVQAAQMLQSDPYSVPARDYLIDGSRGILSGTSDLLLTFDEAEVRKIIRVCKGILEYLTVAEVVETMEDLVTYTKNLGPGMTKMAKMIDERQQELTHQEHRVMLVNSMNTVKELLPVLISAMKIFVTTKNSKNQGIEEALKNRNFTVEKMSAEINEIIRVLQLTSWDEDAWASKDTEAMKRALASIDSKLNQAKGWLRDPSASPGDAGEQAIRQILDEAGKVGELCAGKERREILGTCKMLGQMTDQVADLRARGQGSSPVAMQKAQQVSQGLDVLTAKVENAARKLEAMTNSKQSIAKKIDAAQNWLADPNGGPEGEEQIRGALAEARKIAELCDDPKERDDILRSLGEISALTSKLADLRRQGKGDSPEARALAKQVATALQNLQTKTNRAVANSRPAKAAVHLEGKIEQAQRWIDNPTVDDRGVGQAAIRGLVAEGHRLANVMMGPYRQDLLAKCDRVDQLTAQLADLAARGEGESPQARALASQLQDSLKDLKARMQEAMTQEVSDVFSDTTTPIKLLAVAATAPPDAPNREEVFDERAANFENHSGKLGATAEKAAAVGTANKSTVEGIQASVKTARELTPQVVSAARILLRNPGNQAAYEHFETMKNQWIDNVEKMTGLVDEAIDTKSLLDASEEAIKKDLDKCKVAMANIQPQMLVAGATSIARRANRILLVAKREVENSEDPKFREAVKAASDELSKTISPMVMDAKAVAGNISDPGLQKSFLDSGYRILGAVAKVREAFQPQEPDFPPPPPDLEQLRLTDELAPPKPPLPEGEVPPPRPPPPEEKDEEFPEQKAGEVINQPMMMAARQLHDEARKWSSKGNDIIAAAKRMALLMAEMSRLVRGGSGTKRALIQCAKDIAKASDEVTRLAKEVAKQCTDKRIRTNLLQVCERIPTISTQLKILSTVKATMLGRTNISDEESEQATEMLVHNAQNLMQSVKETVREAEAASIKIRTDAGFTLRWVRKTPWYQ

Results are given in words; binding and its absence hold for the method and conditions named.

This assay concerns the target WT Vinculin (2-1066) (human) (UniProt P18206). Nature of the assay: native MS.

Take “WT Vinculin (2-1066) (from UniProt P18206-2 2-1066)”: the binding result is given as “no binding (tested: 10 μM)”.
